According to patent US4113736A, “2-Phenyl-indole derivatives” (priority 1975, dated 1978):
Values joined by “and” are separate entries in the source; they are usually repeats but may differ in a detail not shown here. Equal values may be shown once.

What was measured:
[1] = Static thermostability of stabilized polyvinyl chloride resin, simplified method with GARDNER sub-scale, 210° C.
[2] = Static thermostability of stabilized polyvinyl chloride resin, GARDNER Scale comparator, 185° C.
Procedure: The stabilizing power of the substances of the invention was studied by determining the static thermostability of the following resin: […]
Polyvinyl chloride resin
Calcium-12-hydroxy-stearate
Stabilizer from 0.1 to 1
SL 2016 represents a solution of zinc-2-ethyl-hexanoate in a mixture of aromatic hydrocarbons boiling between 158° and 184° C.
The different ingredients were mixed and calendered in a mixer of which the cylinders were heated to 160° C.
The rigid sheets so obtained were then heated in a oven to a temperature of 185° or 210° C., until incipient carbonization.
A oven with a rotating drum, ventilated and equipped with a thermostat was used for this operation.
In the trials described hereunder the behaviour of the sheets containing one of the stabilizers to be tested was compared to that of sheets of the same formula but containing 2-phenyl-indole as stabilizer.
Comparison can be made by one of two methods, namely:
(1) The coloration of the sheets, of which samples were removed from the oven at fixed intervals, was compared to a standard scale of coloration, known as the GARDNER Scale, and expressed in terms of the reference figures of the GARDNER Scale.
Comparisons were made with a GARDNER Scale comparator which contains 18 filters of colored glass and which offers the possibility of observing simultaneously by transparency and in a limited field of view both the sheet and the reference filters.
It may happen that the color of the sheets is far removed from that of the GARDNER Scale, in which case comparison is difficult, if not impossible.
The following results were obtained at a temperature of 185° C., using the method described above: […]

| SMILES | Coloration of the sheets ([1]; 0 minutes) [GARDNER degrees] | Coloration of the sheets ([1]; 3 minutes) | Coloration of the sheets ([1]; 6 minutes) | Coloration of the sheets ([1]; 9 minutes) [GARDNER degrees] | Coloration of the sheets ([1]; 12 minutes) | Coloration of the sheets ([1]; 15 minutes) | Coloration of the sheets ([1]; 18 minutes) | Coloration of the sheets ([2]; 0 minutes) [GARDNER degrees] | Coloration of the sheets ([2]; 6 minutes) | Coloration of the sheets ([2]; 12 minutes) | Coloration of the sheets ([2]; 18 minutes) | Coloration of the sheets ([2]; 24 minutes) | Coloration of the sheets ([2]; 30 minutes) | Coloration of the sheets ([2]; 36 minutes) | Coloration of the sheets ([2]; 42 minutes) | Coloration of the sheets ([2]; 48 minutes) | Coloration of the sheets ([2]; 54 minutes) | Coloration of the sheets ([2]; 60 minutes) |
| --- | --- | --- | --- | --- | --- | --- | --- | --- | --- | --- | --- | --- | --- | --- | --- | --- | --- | --- |
| CCCCCCCCCCCCOc1ccc2[nH]c(-c3ccccc3)cc2c1 [Stabilizer 3, 2-phenyl-5-dodecyloxy-indole] | 1 | 1 GARDNER degrees | 2 GARDNER degrees | 3 | 6 GARDNER degrees | 11 GARDNER degrees | 15 GARDNER degrees | – | – | – | – | – | – | – | – | – | – | – |
| CCCCCCCCCCCCOc1ccc(-c2cc3cccc(C)c3[nH]2)cc1C [Stabilizer 14] | 1 | 1 GARDNER degrees | 3 GARDNER degrees | 4 | 15 GARDNER degrees | 15 GARDNER degrees | burnt | – | – | – | – | – | – | – | – | – | – | – |
| COc1ccc2cc(-c3ccccc3)[nH]c2c1 [Stabilizer 1, 2-phenyl-6-methoxy-indole] | 1 | 1 GARDNER degrees | 2 GARDNER degrees | 3 | 4 GARDNER degrees | 10 GARDNER degrees | burnt | – | – | – | – | – | – | – | – | – | – | – |
| COc1ccc(-c2cc3cccc(C)c3[nH]2)cc1 [Stabilizer 5, 2-(4'-methoxy-phenyl)-7-methyl-indole] | 1 | 2 GARDNER degrees | 3 GARDNER degrees | 8 | 10 GARDNER degrees | 11 GARDNER degrees | burnt | – | – | – | – | – | – | – | – | – | – | – |
| Oc1ccc2[nH]c(-c3ccccc3)cc2c1 [Stabilizer 19] | 1 | 1 GARDNER degrees | 3 GARDNER degrees | 9 | 11 GARDNER degrees | 12 GARDNER degrees | burnt | – | – | – | – | – | – | – | – | – | – | – |
| c1ccc(-c2cc3ccccc3[nH]2)cc1 [2-phenyl-indole] | 1 | 2 GARDNER degrees and 1 GARDNER degrees | 3 GARDNER degrees and 2 GARDNER degrees | – | 11 GARDNER degrees and 10 GARDNER degrees and 12 GARDNER degrees | 13 GARDNER degrees and 12 GARDNER degrees and 19 GARDNER degrees | burnt | 1 | 2 GARDNER degrees and 1 GARDNER degrees | 5 GARDNER degrees and 4 GARDNER degrees and 3 GARDNER degrees | 8 GARDNER degrees and 9 GARDNER degrees and 7 GARDNER degrees and 5 GARDNER degrees | 12 GARDNER degrees and 11 GARDNER degrees and 10 GARDNER degrees | 13 GARDNER degrees and 14 GARDNER degrees and 15 GARDNER degrees and 11 GARDNER degrees | 15 GARDNER degrees and 14 GARDNER degrees and 13 GARDNER degrees | 15 GARDNER degrees and 16 GARDNER degrees and 14 GARDNER degrees and 13 GARDNER degrees | 16 GARDNER degrees and 15 GARDNER degrees | 16 GARDNER degrees and 17 GARDNER degrees and 18 GARDNER degrees and 15 GARDNER degrees | burnt |
